Measurements published in US8283373B2, “Inhibitors of cytosolic phospholipase A2” (Pfizer Inc., priority 2005, dated 2012).
For at least one compound, name, drawing or mass did not settle the structure.

Test system: CFA-induced hyperalgesia
Assay: CFA-induced hyperalgesia model
Type: in vivo, rat
Settings: 6 hours after CFA
Excerpt: The sensitivity of peripheral sensory neurons can be enhanced such that they respond to both noxious and non-noxious stimuli resulting in chronic pain (See Julius, D. et al., Nature. 2001; 413:203; Woolf, C. J., et al., Science. […]; 288:1765). Prostaglandins and leukotrienes at the site of inflammation and tissue damage are partially responsible for this potentiation of the pain response. Prostaglandins promote the phosphorylation of ion channels, increasing the excitability and lowering the pain threshold of sensory neurons. Analogously, leukotriene B4 and related arachidonate metabolites of 12-LO bind to and activate the capsaicin receptor (or VR1) ion channel on neurons that respond to heat and low pH (See Piomelli D., TRENDS in Pharmacological Sciences, January 2001; 22(1):17-29). The effect of the compound of Example 10 was measured in the CFA-induced hyperalgesia model, and lipid mediator production was measured at peripheral and central sites.
The animals were dosed with vehicle, the compound of Example 10, naproxen or celecoxib, and then CFA was immediately injected into the hind footpad. To assess hyperalgesia, pressure was applied to the left hind paw at a slow and constant rate using a digital force gauge. Measurements were taken at 0 and 6 hours. The application of the force was stopped when the animal vocalized, or struggled. Readings were taken prior to dosing and CFA injection, and repeated six hours after the CFA injection. Two independent experiments were run and the data were analyzed separately.
The paws were collected at the end of each experiment (6 hours) and the levels of PGE2, LTB4 and TXB2 were measured in the exudates.

Cc1ccc(-c2cc(C(F)(F)F)nn2-c2ccc(S(N)(=O)=O)cc2)cc1 [celecoxib]
LTB4 levels in paw exudates: increased | TXB2 levels in paw exudates: significantly inhibited | PGE2 levels in paw exudates (Example 10 at 25 mg/kg): significantly inhibited
